# Counter-ions that a name gives are not always drawn. This is one part of the list. Most values lie at the level of the controls, where differences are scatter.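 Melting temperature was read by differential scanning fluorimetry in a single-replicate pilot screen of a library of approved drugs and clinical or known-target compounds. Compounds raising the melting point by at least 2 °C were the top stabilizing hits, and negative shifts mean destabilization.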
# System: SARS-CoV-2 main protease (Mpro, nsp5)
# Assay: thermal shift ΔTm of Mpro relative to plate average Tm; higher = stronger thermal stabilization of Mpro (binding)
# Details: 10 µM; protein concentration 1 µM
row,SMILES,thermal shift ΔTm of Mpro [°C]
1,N.N.O=C([O-])C[O-].[Pt+2] [Nedaplatin],-0.00399
2,N[C@@H](Cc1ccc(N(CCCl)CCCl)cc1)C(=O)O [Melphalan],-0.129
3,COC(=O)Nc1ccc(-c2nc(N3CCOCC3)c3cnn(C4CCN(C(=O)OC)CC4)c3n2)cc1,0.209
4,[O-][n+]1cccc(CO)c1 [Mepiroxol],0.0877
5,COc1ccc(C[C@H](N)C(=O)N[C@H]2[C@@H](O)[C@H](n3cnc4c(N(C)C)ncnc43)O[C@@H]2CO)cc1 [Puromycin 2HCl],-0.124
6,OC(CC1c2ccccc2-c2cncn21)C1CCCCC1 (stereo unspecified),-0.0127
7,Cc1ccnc(NS(=O)(=O)c2ccc(N)cc2)n1 [Sulfamerazine],0.151
8,CCC[S+]([O-])c1ccc2[nH]c(NC(=O)OC)nc2c1 (stereo unspecified) [Albendazole Oxide],-0.112
9,NC(=O)OCC(COC(N)=O)c1ccccc1 [Felbamate],0.297
10,O=c1ccn([C@@H]2O[C@H](CO)[C@@H](O)[C@H]2O)c(=O)[nH]1 [Uridine],-0.072
11,COc1cc(/C=C2/SC(=S)NC2=O)ccc1OCC(=O)O,-0.0553
12,C[C@H](Cn1cnc2c(N)ncnc21)OCP(=O)(O)O [Tenofovir],0.223
13,CCCCNc1cc(C(=O)O)cc(S(N)(=O)=O)c1Oc1ccccc1 [Bumetanide],0.186
14,OC(CCN1CCCCC1)(c1ccccc1)C1CCCCC1 (racemic) [DL-trihexyphenidyl hydrochloride],0.166
15,COc1nnc2ccc(N3CCC(c4ccc(OCCN5CCN(C)C(=O)[C@H]5C)cc4)CC3)nn12.O=C(O)c1ccc2cc(O)ccc2c1 [AZD5153 6-Hydroxy-2-naphthoic acid],-0.00828
16,CCOC(=O)[C@H](C)C[C@@H](Cc1ccc(-c2ccccc2)cc1)NC(=O)CCC(=O)O [AHU377 calcium salt],0.0728
17,CCOC(=O)[C@H](C)C[C@@H](Cc1ccc(-c2ccccc2)cc1)NC(=O)CCC(=O)O,0.176
18,N#CC(c1ccnc(OCc2ccc(CN3CCOCC3)cc2)n1)c1nc2ccccc2s1 (stereo unspecified),0.0297
19,CCN(CC)CCOC(=O)c1ccc(N)cc1 [Procaine HCl],-0.0857
20,CCN(CC)CCOC(=O)c1ccc(N)cc1 [Procaine],0.12
21,c1cc(-c2nc3ccc(OCCCN4CCCC4)cc3o2)ccc1OCCCN1CCCC1,0.031
22,Oc1nc(O)c2cn[nH]c2n1 [Oxypurinol],-0.108
23,Cn1ccnc1 [Saccharin 1-methylimidazole (SMI)],0.0581
24,CC[C@H](C)C(=O)O[C@H]1C[C@@H](C)C=C2C=C[C@H](C)[C@H](CC[C@@H]3C[C@@H](O)CC(=O)O3)[C@H]21 [Lovastatin],-0.146
25,Clc1ccc(C(Cn2ccnc2)OCc2ccc(Sc3ccccc3)cc2)c(Cl)c1 (stereo unspecified) [Fenticonazole Nitrate],-0.595
26,Cc1c(C)c2c(c(C)c1O)CCC(C)(C(=O)O)O2 (stereo unspecified) [Trolox],0.0328

# A few values from above.
# CCN(CC)CCOC(=O)c1ccc(N)cc1 [Procaine HCl] | thermal shift ΔTm of Mpro [°C]: -0.0857
# C[C@H](Cn1cnc2c(N)ncnc21)OCP(=O)(O)O [Tenofovir] | thermal shift ΔTm of Mpro [°C]: 0.223
# N#CC(c1ccnc(OCc2ccc(CN3CCOCC3)cc2)n1)c1nc2ccccc2s1 (stereo unspecified) | thermal shift ΔTm of Mpro [°C]: 0.0297
# O=c1ccn([C@@H]2O[C@H](CO)[C@@H](O)[C@H]2O)c(=O)[nH]1 [Uridine] | thermal shift ΔTm of Mpro [°C]: -0.072
# CCN(CC)CCOC(=O)c1ccc(N)cc1 [Procaine] | thermal shift ΔTm of Mpro [°C]: 0.12

# The list goes on.

row,SMILES,thermal shift ΔTm of Mpro [°C]
1,COc1ccc(S(=O)(=O)Nc2ccccc2C=Cc2ccncc2)cc1,0.0121
2,CCn1nc(C2CCN(C(=O)CCO)CC2)nc1-c1cnc(N)c(-c2nnc(C(C)(C)C)o2)n1,0.105
3,COc1cccc2cc(-c3nc([C@H]4CC[C@H](C(=O)O)CC4)n4ncnc(N)c34)[nH]c12,0.117
4,CS(=O)(=O)c1ccc(-c2cnc(NCc3ccco3)n3cnnc23)cc1,0.00293
5,O=C1CCC[C@@H]2[C@H]3CCC[N+]4([O-])CCC[C@@H](CN12)[C@@H]34 (stereo partly specified) [Oxymatrine],-0.0788
6,C[C@@H](c1nc(-c2ccc(C#N)cc2)cs1)[C@](O)(Cn1cncn1)c1cc(F)ccc1F [Isavuconazole],-0.0483
7,"N[C@@H](Cc1cc(I)c(Oc2ccc(O)cc2)c(I)c1)C(=O)O [3,5-Diiodo-L-thyronine]",-0.188
8,C[C@]1(c2nc3c(C(N)=O)cccc3[nH]2)CCCN1 [Veliparib (ABT-888)],-0.139
9,C[C@]1(c2nc3c(C(N)=O)cccc3[nH]2)CCCN1 [Veliparib dihydrochloride],0.0613
10,C=CC(=O)Nc1cc(Nc2ncc(Cl)c(-c3c[nH]c4ccccc34)n2)c(OC)cc1N(C)CCN(C)C [Mutant EGFR inhibitor],0.138
11,CC(=O)N[C@@H](CS)C(=O)O [Acetylcysteine],-0.139
12,"OCC(O)c1ccccc1 (stereo unspecified) [1-Phenyl-1,2-ethanediol]",0.11
13,C=C[C@@H]1C2=CCOC(=O)C2=CO[C@H]1O[C@@H]1O[C@H](CO[C@@H]2O[C@H](CO)[C@@H](O)[C@H](O)[C@H]2O)[C@@H](O)[C@H](O)[C@H]1O [6'-O-beta-D-Glucosylgentiopicroside],0.00787
14,Oc1ccccc1N=Cc1c(O)ccc2ccccc12,-0.264
15,O=C(O)Cc1cccc(OCCCN(Cc2cccc(C(F)(F)F)c2Cl)CC(c2ccccc2)c2ccccc2)c1,-0.553
16,"O=[N+]([O-])/C=C/c1ccc2c(c1)OCO2 [MNS (3,4-Methylenedioxy-β-nitrostyrene, MDBN)]",-0.387
17,CC(=O)O[C@H]1C[C@@]2(C)[C@@H](C[C@@H](O)[C@H]3[C@@]4(C)CC[C@@H](O)[C@@H](C)[C@@H]4CC[C@@]32C)/C1=C(\CCC=C(C)C)C(=O)O [Sodium fusidate],-0.0438
18,C[C@@H](C(=O)Nc1ccc(Cl)cc1)[C@H]1CC[C@@H](c2ccnc3ccc(F)cc32)CC1 [Linrodostat],0.263
19,CCN(CC)C(=O)C(c1ccccc1)N1CCN(c2ccc(NC(=O)c3ccccc3-c3cccnc3)cc2F)CC1 (stereo unspecified),-0.0914
20,C=C1C[C@]2(O)O[C@@]3(CC2=C(C)C)[C@@H](C)CC[C@@H]13 [Isocurcumenol],0.00395
21,O=c1[nH]c2cc(C(F)(F)F)ccc2n1-c1cc(C(F)(F)F)ccc1O,-0.0337
22,COc1cc(C2Oc3cc([C@H]4Oc5cc(O)cc(O)c5C(=O)[C@@H]4O)ccc3OC2CO)ccc1O (stereo partly specified) [Silymarin],-0.116
23,COc1cc(C2Oc3cc([C@H]4Oc5cc(O)cc(O)c5C(=O)[C@@H]4O)ccc3OC2CO)ccc1O (stereo partly specified) [Silibinin],-0.123
24,CC(C)CCCC(C)N (stereo unspecified) [2-Amino-6-methylheptane],-0.0415
25,O=c1cc(-c2ccccc2)oc2cc(O)c(O)c(O)c12 [Baicalein],3.42

# Reference: the supplement of paper PMC8166895
